From PubChem BioAssay AID328 (DTP/NCI, 2004)
The list is a part of this screen's results and no random one: it is rich in T/C values a quarter to a half above the control, in often repeated tests (any T/C) and in doses without a T/C. Further doses and runs are listed elsewhere. T/C is the treated group as % of the vehicle group. Some doses have a count of surviving animals in place of a T/C: the source holds a T/C of zero for them, seemingly a mark for toxic or unscored doses. Some survivor counts are full or nearly so, which does not show that the dose was tolerated: the source hardly ever lists a survival T/C far under the control, and the zero likely stands for such cases as well. Survivors were counted at the toxicity check, usually on the fifth day, unless a day is given; later deaths do not show. Schedules are NCI's codes, read here as Q, the interval in days (D) or hours (H), X, the number of doses. Some entries hold several experiments; their values stand side by side, smallest first. Counts like (3×) count equal records among those shown. Where survival is the endpoint, the PubChem record calls one and a half times the control and up active, and a quarter to a half above the control has no call in these data; cut-offs in other NCI protocols can differ. Some T/C values are followed by the survivors on the day toxicity was checked, most often the fifth; without a count, all were alive then.

Test system: BDF1 mice, P388 leukemia ip, median survival T/C
Assay: NCI In Vivo Anticancer Drug Screen. Data for tumor model P388 Leukemia (intraperitoneal) in B6D2F1 (BDF1) mice
Conditions: T/C endpoint: median survival time, higher T/C = longer survival
Procedure, shortened: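 Reported as T/C, where T is the survival measurement in dosed animals and C the same measurement in vehicle controls.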

[1] = dose: 100.0 mg/kg/injection, schedule: Q01DX009 (ip), vehicle: saline with Tween-80
[2] = dose: 200.0 mg/kg/injection, schedule: Q01DX009 (ip), vehicle: saline with Tween-80

**Q.** Which T/C (dose: 0.25 mg/kg/injection, schedule: Q01DX009 (ip), vehicle: water, evaluated on day 28) does the source give for COc1cccc2c1C(=O)c1c(O)c3c(c(O)c1C2=O)C[C@@](O)(/C(C)=N/NC(=O)c1ccccc1)C[C@@H]3OC1CC(N)C(O)C(C)O1 (stereo partly drawn) here?
**A.** 100 % of control

**Q.** What about the T/C (dose: 0.25 mg/kg/injection, schedule: Q01DX009 (ip), vehicle: water, evaluated on day 30) of the same compound?
**A.** 120, 140, 144 (2×), 167 % of control

**Q.** What about the T/C (dose: 0.25 mg/kg/injection, schedule: Q01DX009 (ip), vehicle: water, evaluated on day 31) of the same compound?
**A.** 134 % of control

**Q.** And the T/C (dose: 0.25 mg/kg/injection, schedule: Q01DX009 (ip), vehicle: water, evaluated on day 32)?
**A.** 114 and 151 % of control

**Q.** What about the survivor count (dose: 0.25 mg/kg/injection, schedule: Q01DX009 (ip), vehicle: water) of the same compound?
**A.** 5 of 6

**Q.** What about the T/C (dose: 0.5 mg/kg/injection, schedule: Q01DX009 (ip), vehicle: water, evaluated on day 28) of the same compound?
**A.** 102 % of control

**Q.** And the T/C (dose: 0.5 mg/kg/injection, schedule: Q01DX009 (ip), vehicle: water, evaluated on day 30)?
**A.** 156, 160, 162, 180 % of control

**Q.** And the T/C (dose: 0.5 mg/kg/injection, schedule: Q01DX009 (ip), vehicle: water, evaluated on day 31)?
**A.** 152 % of control

**Q.** And the T/C (dose: 0.5 mg/kg/injection, schedule: Q01DX009 (ip), vehicle: water, evaluated on day 32)?
**A.** 122 and 151 % of control

**Q.** And the T/C (dose: 0.5 mg/kg/injection, schedule: Q01DX009 (ip), vehicle: water, evaluated on day 33)?
**A.** 131 % of control

**Q.** What about the T/C (dose: 0.5 mg/kg/injection, schedule: Q01DX009 (ip), vehicle: water, evaluated on day 60) of the same compound?
**A.** 134 % of control

**Q.** And the survivor count (dose: 0.5 mg/kg/injection, schedule: Q01DX009 (ip), vehicle: water)?
**A.** 6 of 6

**Q.** What about the T/C (dose: 0.75 mg/kg/injection, schedule: Q01DX009 (ip), vehicle: water) of the same compound?
**A.** 140 % of control

**Q.** What about the T/C (dose: 1.0 mg/kg/injection, schedule: Q01DX009 (ip), vehicle: water, evaluated on day 28) of the same compound?
**A.** 109 % of control [5 of 6 alive]

**Q.** What about the T/C (dose: 1.0 mg/kg/injection, schedule: Q01DX009 (ip), vehicle: water, evaluated on day 30) of the same compound?
**A.** 135, 166, 171, 182, 189 % of control

**Q.** And the T/C (dose: 1.0 mg/kg/injection, schedule: Q01DX009 (ip), vehicle: water, evaluated on day 31)?
**A.** 190 % of control

**Q.** And the T/C (dose: 1.0 mg/kg/injection, schedule: Q01DX009 (ip), vehicle: water, evaluated on day 32)?
**A.** 140 and 205 % of control

**Q.** And the T/C (dose: 1.0 mg/kg/injection, schedule: Q01DX009 (ip), vehicle: water, evaluated on day 33)?
**A.** 100 % of control [4 of 6 alive]

**Q.** What about the T/C (dose: 1.0 mg/kg/injection, schedule: Q01DX009 (ip), vehicle: water, evaluated on day 60) of the same compound?
**A.** 154 % of control

**Q.** And the T/C (dose: 2.0 mg/kg/injection, schedule: Q01DX009 (ip), vehicle: water, evaluated on day 28)?
**A.** 145 % of control

**Q.** What about the T/C (dose: 2.0 mg/kg/injection, schedule: Q01DX009 (ip), vehicle: water, evaluated on day 30) of the same compound?
**A.** 139, 180 [5 of 6 alive], 182, 200, 216 % of control

**Q.** What about the T/C (dose: 2.0 mg/kg/injection, schedule: Q01DX009 (ip), vehicle: water, evaluated on day 31) of the same compound?
**A.** 209 % of control

**Q.** And the T/C (dose: 2.0 mg/kg/injection, schedule: Q01DX009 (ip), vehicle: water, evaluated on day 32)?
**A.** 154 and 160 % of control

**Q.** And the T/C (dose: 2.0 mg/kg/injection, schedule: Q01DX009 (ip), vehicle: water, evaluated on day 33)?
**A.** 131 % of control

**Q.** What about the T/C (dose: 2.0 mg/kg/injection, schedule: Q01DX009 (ip), vehicle: water, evaluated on day 60) of the same compound?
**A.** 166 % of control

**Q.** What about the T/C (dose: 4.0 mg/kg/injection, schedule: Q01DX009 (ip), vehicle: water, evaluated on day 28) of the same compound?
**A.** 190 % of control

**Q.** And the T/C (dose: 4.0 mg/kg/injection, schedule: Q01DX009 (ip), vehicle: water, evaluated on day 30)?
**A.** 117, 129, 180, 241 % of control

**Q.** And the T/C (dose: 4.0 mg/kg/injection, schedule: Q01DX009 (ip), vehicle: water, evaluated on day 31)?
**A.** 247 % of control [5 of 6 alive]

**Q.** And the T/C (dose: 4.0 mg/kg/injection, schedule: Q01DX009 (ip), vehicle: water, evaluated on day 32)?
**A.** 145 and 173 % of control

**Q.** And the T/C (dose: 4.0 mg/kg/injection, schedule: Q01DX009 (ip), vehicle: water, evaluated on day 33)?
**A.** 147 % of control [5 of 6 alive]

**Q.** And the T/C (dose: 4.0 mg/kg/injection, schedule: Q01DX009 (ip), vehicle: water, evaluated on day 60)?
**A.** 236 % of control

**Q.** And the survivor count (dose: 4.0 mg/kg/injection, schedule: Q01DX009 (ip), vehicle: water)?
**A.** 6 of 6

**Q.** And the survivor count (dose: 6.0 mg/kg/injection, schedule: Q01DX009 (ip), vehicle: water)?
**A.** 8 of 8

**Q.** And the T/C (dose: 8.0 mg/kg/injection, schedule: Q01DX009 (ip), vehicle: water, evaluated on day 28)?
**A.** 190 % of control

**Q.** What about the T/C (dose: 8.0 mg/kg/injection, schedule: Q01DX009 (ip), vehicle: water, evaluated on day 30) of the same compound?
**A.** 157 and 180 % of control

**Q.** What about the T/C (dose: 8.0 mg/kg/injection, schedule: Q01DX009 (ip), vehicle: water, evaluated on day 31) of the same compound?
**A.** 276 % of control

**Q.** And the T/C (dose: 8.0 mg/kg/injection, schedule: Q01DX009 (ip), vehicle: water, evaluated on day 32)?
**A.** 278 % of control

**Q.** And the T/C (dose: 8.0 mg/kg/injection, schedule: Q01DX009 (ip), vehicle: water, evaluated on day 33)?
**A.** 155 % of control

**Q.** What about the T/C (dose: 8.0 mg/kg/injection, schedule: Q01DX009 (ip), vehicle: water, evaluated on day 60) of the same compound?
**A.** 111 % of control

**Q.** What about the survivor count (dose: 8.0 mg/kg/injection, schedule: Q01DX009 (ip), vehicle: water) of the same compound?
**A.** 5 of 6 (2×) and 6 of 6

**Q.** And the survivor count (dose: 12.0 mg/kg/injection, schedule: Q01DX009 (ip), vehicle: water)?
**A.** 8 of 8

**Q.** What about the survivor count (dose: 16.0 mg/kg/injection, schedule: Q01DX009 (ip), vehicle: water) of the same compound?
**A.** 6 of 6

**Q.** What about the survivor count (dose: 24.0 mg/kg/injection, schedule: Q04DX003 (ip), vehicle: saline) of the same compound?
**A.** 6 of 6

**Q.** What about the survivor count (dose: 30.0 mg/kg/injection, schedule: Q04DX003 (ip), vehicle: water) of the same compound?
**A.** 6 of 8

**Q.** For COC(=O)C1=C(C)NC(=O)NC1c1ccc(N(CCCl)CCCl)c(OC)c1 (stereo not drawn), which T/C (dose: 0.9 mg/kg/injection, schedule: Q01DX009 (ip), vehicle: saline with Tween-80) is on record?
**A.** 146 % of control

**Q.** Which T/C [1] does the source give for CCC(NC(N)=O)C(CC)NC(N)=O (stereo not drawn) here?
**A.** 137 % of control

**Q.** And the survivor count [1]?
**A.** 2 of 6

**Q.** And the survivor count [2]?
**A.** 4 of 6

**Q.** For C=CC[Se]c1nc(N)nc2c1ncn2C1OC(CO)C(O)C1O (stereo not drawn), which survivor count (dose: 200.0 mg/kg/injection, schedule: Q04DX003 (ip), vehicle: saline) is on record?
**A.** 1 of 6

**Q.** And the survivor count (dose: 400.0 mg/kg/injection, schedule: Q04DX003 (ip), vehicle: saline)?
**A.** 0 of 6

**Q.** Which results are given for C(=C\c1ccccc1)/C=N/N=C/C=C/c1ccccc1?
**A.** survivor count (dose: 100.0 mg/kg/injection, schedule: Q04DX003 (ip), vehicle: saline with Tween-80): 6 of 6; survivor count (dose: 200.0 mg/kg/injection, schedule: Q04DX003 (ip), vehicle: saline with Tween-80): 6 of 6; survivor count (dose: 400.0 mg/kg/injection, schedule: Q04DX003 (ip), vehicle: saline with Tween-80): 6 of 6

**Q.** How did the T/C [2] turn out when CCCCC(NC(C)=O)C(=O)O (stereo not drawn) was run?
**A.** 127 % of control

**Q.** For FC(F)(F)c1nnn[n-]1.[Au+].c1ccc([PH+](c2ccccc2)c2ccccc2)cc1, which survivor count (dose: 100.0 mg/kg/injection, schedule: Q01DX001 (ip), vehicle: saline with Tween-80) is on record?
**A.** 0 of 6

**Q.** How did the survivor count (dose: 100.0 mg/kg/injection, schedule: Q04DX003 (ip), vehicle: Klucel (hydroxypropylcellulose) (HPC)) turn out when CCC(C)(O)C#CC#CC(C)(O)CC (stereo not drawn) was run?
**A.** 5 of 6

**Q.** What about the survivor count (dose: 200.0 mg/kg/injection, schedule: Q04DX003 (ip), vehicle: Klucel (hydroxypropylcellulose) (HPC)) of the same compound?
**A.** 5 of 6

**Q.** What about the survivor count (dose: 400.0 mg/kg/injection, schedule: Q04DX003 (ip), vehicle: Klucel (hydroxypropylcellulose) (HPC)) of the same compound?
**A.** 0 of 6
